At least one compound was matched to its structure with a doubt left.
Test system: DCs
Test: Inhibition of MAPKs and PI3K/Akt activation before ACW stimulation of DCs
Assay type: cell-based, human
Settings: inhibitor 25 μM for 2 hours before ACW; for CD86 expression of the ACW-treated DCs after inhibitor pretreatment: FIG. 13(A)
Protocol: To examine the signal transduction pathways involved in the effects of ACW on DC maturation, DCs were pretreated at 37° C. with ERK inhibitor PD98059 (25 μM), JNK inhibitor SP600125 (25 μM), p38 MAPK inhibitor SB203580 (25 μM) or PI3K/Akt inhibitor LY294002 (25 μM) for 2 hours before stimulation with ACW. After 2 days, phenotyping characteristics of DCs and IL-12 production in the supernatants of DCs were analyzed.

| SMILES | CD86 expression of the ACW-treated DCs after inhibitor pretreatment | IL-12 production of DCs induced by ACW after inhibitor pretreatment (FIG. 13(B)) |
| --- | --- | --- |
| O=c1cc(N2CCOCC2)oc2c(-c3ccccc3)cccc12 [LY294002] | inhibit CD86 expression | significantly blocks the up-regulation of IL-12 production |
| Oc1c2ccccc2c2c3c(cccc13)N=N2 [SP600125] | inhibit CD86 expression | – |

— patent US9241962B2, “Water extract of Antrodia camphorata for immunostimulatory effect and preparation method thereof” (Kaohsiung Medical University, priority 2009, dated 2016)
